23 compounds from PubChem BioAssay AID264 (DTP/NCI, 2004) can be followed below.

The list shows only some results of the screen, not a fair sample: it gathers tests that were run many times, whatever their T/C, doses with no T/C, and many T/C values between a quarter and a half above the control. Other doses and runs of a compound stand elsewhere. T/C gives the treated animals as a percentage of the vehicle group. Schedules are NCI's codes, taken here to give the interval after Q, in days (D) or hours (H), and the number of doses after X. Some entries give survivors of the animals treated and no T/C: the source files T/C as zero there, which appears to mark a toxic dose or a test without result, not a measured value. Counts of survivors are from the toxicity check (mostly the fifth day) where no day follows; animals may have died later. Some doses were run more than once; their values stand side by side, smallest first. Some structures stand for samples that the source files as different forms (salt, stereo form or complex); doses refer to the form tested.

This assay relates to nude mice, LX-1 lung xenograft intrarenal, tumor weight T/C. In words: NCI In Vivo Anticancer Drug Screen. Data for tumor model Human Lung LX-1 Xenograft (intrarenal inoculation) in NU/NU Swiss (nude) mice. As to conditions: T/C endpoint: mean tumor weight change, higher T/C = larger tumour; for T/C: evaluated on day 11. The procedure, abridged: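 Compound-treated mice carrying transplanted tumors were compared with vehicle-treated controls. Tumor size was the measured end point, and the value is the treated-group measurement divided by the control-group measurement (T/C).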

The mark [1] stands for this setting: dose: 300.0 mg/kg/injection, schedule: Q04DX003 (sc), vehicle: saline with Tween-80.
Setting [2] is: dose: 200.0 mg/kg/injection, schedule: Q01DX010 (sc), vehicle: saline.
The mark [3] stands for this setting: dose: 400.0 mg/kg/injection, schedule: Q01DX010 (sc), vehicle: saline.
[4] abbreviates: dose: 50.0 mg/kg/injection, schedule: Q04DX003 (sc), vehicle: saline with Tween-80.
Setting [5] is: dose: 300.0 mg/kg/injection, schedule: Q04DX003 (sc), vehicle: suspension in saline.
[6] abbreviates: dose: 600.0 mg/kg/injection, schedule: Q04DX003 (sc), vehicle: Klucel (hydroxypropylcellulose) (HPC).

Turning to `CCc1ncnc2cc(OCC3CO3)c(OC)cc12` (stereo unspecified), the survivor count (dose: 200.0 mg/kg/injection, schedule: Q04DX003 (sc), vehicle: suspension in saline) is recorded as 2 of 6 on day 11 and the survivor count (dose: 400.0 mg/kg/injection, schedule: Q04DX003 (sc), vehicle: suspension in saline) is 0 of 6 on day 11.
Consider `CCCCOC(=O)/C=C(\Br)C(=O)OCCCC`, for which the survivor count (dose: 800.0 mg/kg/injection, schedule: Q01DX010 (sc), vehicle: saline with Tween-80) is reported as 0 of 3 on day 11.
Regarding `CN=C(N)N/N=C(\C)c1ccc2oc3ccc(/C(C)=N/NC(N)=NC)cc3c2c1`, the survivor count runs as follows: under setting [1], 2 of 6 on day 11; (dose: 600.0 mg/kg/injection, schedule: Q04DX003 (sc), vehicle: saline with Tween-80) 1 of 5 on day 11.
On to `Cc1c(N)nc(C(CC(N)=O)NCC(N)C(N)=O)nc1C(=O)NC(C(=O)NC(C)C(O)CC(=O)NC(C(=O)NC(OC1OC(C)C(N)C(O)C1O)C(O)c1nc(-c2nc(C(=O)NCCCC(N)CC(=O)NCCCNCCCCN)cs2)cs1)C(C)O)C(OC1OC(CO)C(O)C(O)C1OC1OC(CO)C(O)C(OC(N)=O)C1O)c1cnc[nH]1` (stereo unspecified), for which the survivor count is, setting by setting: (dose: 32.0 mg/kg/injection, schedule: Q04DX003 (sc), vehicle: saline) 1 of 3 on day 11; (dose: 64.0 mg/kg/injection, schedule: Q04DX003 (sc), vehicle: saline) 0 of 3 on day 11; (dose: 128.0 mg/kg/injection, schedule: Q04DX003 (sc), vehicle: saline) 0 of 3 on day 11.
Turning to `OCC1OC(n2cnc3c(=S)nc[nH]c32)C(O)C1O` (stereo unspecified), the survivor count was 0 of 3 on day 11 under setting [2]; 0 of 3 on day 11 under setting [3]; 0 of 3 on day 11 (dose: 800.0 mg/kg/injection, schedule: Q01DX010 (sc), vehicle: saline).
Regarding `ClCC[N+]12CC[N+](CCCl)(CC1)C2`, the survivor count is, setting by setting: (dose: 400.0 mg/kg/injection, schedule: Q01DX010 (sc), vehicle: saline with Tween-80) 1 of 3 on day 11; (dose: 600.0 mg/kg/injection, schedule: Q04DX003 (sc), vehicle: water) 3 of 6 on day 11; (dose: 1200.0 mg/kg/injection, schedule: Q04DX003 (sc), vehicle: water) 0 of 6 on day 11; (dose: 2400.0 mg/kg/injection, schedule: Q04DX003 (sc), vehicle: water) 0 of 6 on day 11.
For the compound `Cc1c2ccncc2c(C)c2c1[nH]c1ccccc12`, the survivor count runs as follows: (dose: 50.0 mg/kg/injection, schedule: Q01DX010 (sc), vehicle: saline) 0 of 3 on day 11; (dose: 100.0 mg/kg/injection, schedule: Q01DX010 (sc), vehicle: saline) 0 of 3 on day 11; under setting [2], 0 of 3 on day 11; under setting [3], 0 of 2 on day 11.
`CC1(C)OC1CS(=O)c1ccccc1` (stereo unspecified): under setting [1], the T/C was 139 % of control. Also, for the setting “dose: 2400.0 mg/kg/injection, schedule: Q04DX003 (sc), vehicle: saline with Tween-80”, the survivor count was 1 of 6 on day 11.
As for `CCCCNCCCNCCCNC(=O)c1csc(-c2csc(CCNC(=O)C(NC(=O)C(C)C(O)C(C)NC(=O)C(NC(=O)c3nc(C(CC(N)=O)NCC(N)C(N)=O)nc(N)c3C)C(OC3OC(CO)C(O)C(O)C3OC3OC(CO)C(O)C(OC(N)=O)C3O)c3cnc[nH]3)C(C)O)n2)n1` (stereo unspecified), the survivor count (dose: 64.0 mg/kg/injection, schedule: Q01DX010 (sc), vehicle: saline) is recorded as 0 of 3 on day 11.
As for `C[CH2][Sn]([CH2]C)([CH2]C(=O)OC)[CH2]C(=O)OC`, under setting [4], the survivor count is listed as 2 of 6 on day 11.
With `Cc1cc(NS(=O)(=O)c2ccc(N=Nc3cc(N=Nc4ccc(S(=O)(=O)Nc5cc(C)nc(C)n5)cc4)c4c(NC(=O)C(Cl)Cl)cccc4c3OC(=O)C(Cl)Cl)cc2)nc(C)n1` (tested in a mixture with another compound), the T/C under setting [5] is 136 % of control.
On to `CS(=O)(=O)CS(=O)(=O)OCCCl`, for which the survivor count under setting [5] is reported as 3 of 6 on day 11; the survivor count (dose: 600.0 mg/kg/injection, schedule: Q04DX003 (sc), vehicle: suspension in saline) is recorded as 1 of 6 on day 11; the survivor count (dose: 1200.0 mg/kg/injection, schedule: Q04DX003 (sc), vehicle: suspension in saline) is reported as 0 of 6 on day 11.
In the case of `N/C(=N\OC(=O)Nc1ccc(CSc2ccc(Cl)cc2)o1)c1ccccn1`, under setting [6], the survivor count was 1 of 6 on day 11.
Regarding `Cc1cc(NCCCN(C)C)c2ccc3c(ccc4c(NCCCN(C)C)cc(C)nc43)c2n1`, the survivor count is 0 of 6 on day 11 (dose: 37.5 mg/kg/injection, schedule: Q04DX003 (sc), vehicle: saline with Tween-80) and 0 of 6 on day 11 (dose: 75.0 mg/kg/injection, schedule: Q04DX003 (sc), vehicle: saline with Tween-80).
For `COC1CC(CC2CCC(C)C(C(C)C(=O)O)O2)OC2(OC(C)(C3CCC(C)(C4OC(C5OC(O)(CO)C(C)CC5C)CC4C)O3)CC2C)C1C` (stereo unspecified), under “dose: 15.0 mg/kg/injection, schedule: Q04DX003 (sc), vehicle: Klucel (hydroxypropylcellulose) (HPC)”, the T/C is 137 % of control.
Turning to `COCC1OC2OC3C(COC)OC(OC4C(COC)OC(OC5C(COC)OC(OC6C(COC)OC(OC7C(COC)OC(OC8C(COC)OC(OC1C(O)C2O)C(O)C8O)C(O)C7O)C(O)C6O)C(O)C5O)C(O)C4O)C(O)C3O` (stereo unspecified) (tested in a mixture with another compound), the survivor count reads like this: (dose: 400.0 mg/kg/injection, schedule: Q04DX003 (sc), vehicle: Klucel (hydroxypropylcellulose) (HPC)) 3 of 5 on day 11; (dose: 800.0 mg/kg/injection, schedule: Q04DX003 (sc), vehicle: Klucel (hydroxypropylcellulose) (HPC)) 2 of 6 on day 11; (dose: 1600.0 mg/kg/injection, schedule: Q04DX003 (sc), vehicle: Klucel (hydroxypropylcellulose) (HPC)) 2 of 6 on day 11.
As to `C(CSC1=NCCN1)CSC1=NCCN1`, the survivor count reads like this: under setting [2], 0 of 3 on day 11; under setting [3], 0 of 3 on day 11.
In the case of `Oc1c(Cl)cc(Cl)cc1C1N2CCCCC2C2c3cccn3-c3ccccc3N21` (stereo unspecified), the T/C under setting [6] was 140 % of control.
In the case of `OCCOCCN1CCN(CCCN2c3ccccc3Sc3ccc(C(F)(F)F)cc32)CC1`, the T/C was 129 % of control (dose: 1.5 mg/kg/injection, schedule: Q01DX010 (sc), vehicle: saline); 133 % of control (dose: 12.0 mg/kg/injection, schedule: Q01DX010 (sc), vehicle: saline); 125 % of control (dose: 24.0 mg/kg/injection, schedule: Q01DX010 (sc), vehicle: saline). Where the note is “dose: 96.0 mg/kg/injection, schedule: Q01DX010 (sc), vehicle: saline”, the survivor count is 0 of 3 on day 11.
As to `CCOC(=O)Nc1cc2c(c(N)n1)N=C(c1ccccc1)CN2`, the survivor count is on record as 3 of 6 on day 11 (dose: 12.5 mg/kg/injection, schedule: Q04DX003 (sc), vehicle: saline with Tween-80) and 2 of 6 on day 11 under setting [4].
With `COC1C(O)CC(OC2CC(OC3CC(O[C@@H]4C(=O)c5c(cc6cc(OC7CC(OC8CC(O)C(O)C(C)O8)C(O)C(C)O7)c(C)c(O)c6c5O)C[C@H]4[C@H](OC)C(=O)[C@@H](O)[C@@H](C)O)OC(C)C3O)OC(C)C2O)OC1C` (stereo partly specified), the survivor count (dose: 6.0 mg/kg/injection, schedule: Q01DX010 (sc), vehicle: saline) is 0 of 2 on day 11 and 0 of 3 on day 11.
With `CCCCCCCC(=O)N/N=C(\CO)[C@]1(O)Cc2c(O)c3c(c(O)c2[C@@H](OC2CC(N)C(O)C(C)O2)C1)C(=O)c1c(OC)cccc1C3=O` (stereo partly specified), the survivor count (dose: 100.0 mg/kg/injection, schedule: Q01DX010 (sc), vehicle: water) was 0 of 3 on day 11.
As to `OCC1OC(n2cnc3cncnc32)C(O)C1O` (stereo unspecified), under “dose: 100.0 mg/kg/injection, schedule: Q04DX003 (sc), vehicle: saline”, the survivor count is listed as 2 of 6 on day 11.
